Reference: the supplement of paper PMC3334620
In all, about 33,000 sequences were measured (“E-score (-0.5 to 0.5)”: median about -0.015, highest 2% from about 0.3 on). The list shows a part of the results.

Biological target: T1, Abf1 (UniProt P14164)
T1 sequence: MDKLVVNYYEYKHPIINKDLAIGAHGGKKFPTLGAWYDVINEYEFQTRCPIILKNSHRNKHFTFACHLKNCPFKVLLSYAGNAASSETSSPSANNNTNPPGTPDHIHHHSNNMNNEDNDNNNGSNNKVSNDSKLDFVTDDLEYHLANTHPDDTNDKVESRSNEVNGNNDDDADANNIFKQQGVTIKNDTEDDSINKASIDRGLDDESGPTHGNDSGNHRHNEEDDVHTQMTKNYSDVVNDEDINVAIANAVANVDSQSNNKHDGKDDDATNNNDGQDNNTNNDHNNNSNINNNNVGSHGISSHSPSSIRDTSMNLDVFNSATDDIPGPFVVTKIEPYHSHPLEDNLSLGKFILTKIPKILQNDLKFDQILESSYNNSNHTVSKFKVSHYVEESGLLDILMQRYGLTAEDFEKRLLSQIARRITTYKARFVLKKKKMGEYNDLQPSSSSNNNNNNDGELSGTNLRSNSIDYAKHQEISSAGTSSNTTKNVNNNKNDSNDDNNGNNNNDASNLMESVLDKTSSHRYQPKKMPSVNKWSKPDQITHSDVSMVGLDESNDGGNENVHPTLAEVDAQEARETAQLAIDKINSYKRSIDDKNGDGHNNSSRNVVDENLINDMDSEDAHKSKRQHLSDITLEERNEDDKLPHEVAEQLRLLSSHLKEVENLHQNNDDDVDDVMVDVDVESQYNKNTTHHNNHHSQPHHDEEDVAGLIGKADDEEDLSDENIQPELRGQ
Test: PBM E-score (8-mer binding enrichment) (E-score (-0.5 to 0.5)); higher = stronger / more preferred TF binding
Conditions: protein concentration: 200 nM; construct: GST-full length
Summary of the method: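 Yeast transcription factors carrying a GST tag, as full-length proteins or DNA-binding domains, were produced by PURExpress in vitro transcription/translation. About 100-200 nM protein was applied to universal all-10-mer Agilent arrays, double-stranded by primer extension on fresh or once-stripped slides. Bound protein was detected with fluorescent anti-GST, and scans were normalised with masliner. The Universal PBM Analysis Suite gave each ungapped eight-base word, pooled with its reverse complement, an E-score, a modified Wilcoxon-Mann-Whitney statistic.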

Q: Which “PBM E-score” value does the source give for CACATCTA here?
A: Its value is 0.0401.

Q: Which “PBM E-score” value does the source give for AGAACCGA here?
A: Its value is 0.107.

Q: For GCGACCAC, which “PBM E-score” value is on record?
A: Its value is 0.134.

Q: For CGTATCCC, which “PBM E-score” value is on record?
A: The value was 0.111.

Q: How did the “PBM E-score” value turn out when AGAACCAG was run?
A: The value was -0.0804.

Q: For GGTTCAAA, which “PBM E-score” value is on record?
A: Its value is 0.0158.

Q: ATTAAGTG was tested. Which “PBM E-score” value did it give?
A: The value was 0.092.

Q: How did the “PBM E-score” value turn out when CGCACCAG was run?
A: Its value is -0.0988.

Q: With CAGGAATC as the sequence, how does the “PBM E-score” value read?
A: The value was 0.158.

Q: With TATAATGA as the sequence, how does the “PBM E-score” value read?
A: The value was 0.125.

Q: ATTTCATC was tested. Which “PBM E-score” value did it give?
A: The value was 0.0735.

Q: Which “PBM E-score” value does the source give for GCGCCACC here?
A: Its value is -0.177.

Q: For GCGCGGGA, which “PBM E-score” value is on record?
A: Its value is -0.00898.

Q: How did the “PBM E-score” value turn out when GCAGCAGA was run?
A: Its value is -0.205.

Q: How did the “PBM E-score” value turn out when ATCTGTGG was run?
A: Its value is -0.257.

Q: Which “PBM E-score” value does the source give for GCGTTACA here?
A: Its value is 0.171.

Q: With ATTCCGGA as the sequence, how does the “PBM E-score” value read?
A: The value was 0.0747.

Q: GCAAAAAA was tested. Which “PBM E-score” value did it give?
A: Its value is 0.0891.

Q: Which “PBM E-score” value does the source give for GAAAAAGA here?
A: The value was -0.00194.

Q: How did the “PBM E-score” value turn out when GCCCTGTA was run?
A: Its value is -0.214.

Q: For AGTACTTC, which “PBM E-score” value is on record?
A: The value was -0.0726.

Q: ATAATCCG was tested. Which “PBM E-score” value did it give?
A: Its value is -0.0846.

Q: With GTTTTCTA as the sequence, how does the “PBM E-score” value read?
A: Its value is -0.0572.

Q: Which “PBM E-score” value does the source give for AGTCGTAG here?
A: The value was 0.14.

Q: GCGTTTCC was tested. Which “PBM E-score” value did it give?
A: The value was -0.162.

Q: How did the “PBM E-score” value turn out when GCATATTA was run?
A: The value was 0.203.

Q: How did the “PBM E-score” value turn out when CCTTGGCC was run?
A: Its value is -0.371.

Q: Which “PBM E-score” value does the source give for CAACGCTC here?
A: The value was 0.0635.

Q: How did the “PBM E-score” value turn out when CAGAGGAG was run?
A: Its value is -0.0726.

Q: ATTGGCCG was tested. Which “PBM E-score” value did it give?
A: Its value is -0.117.

Q: How did the “PBM E-score” value turn out when CCTTTCAC was run?
A: The value was 0.11.

Q: How did the “PBM E-score” value turn out when AGCGTGAT was run?
A: The value was 0.265.

Q: GTACGTCA was tested. Which “PBM E-score” value did it give?
A: The value was 0.286.

Q: Which “PBM E-score” value does the source give for TACAGGAA here?
A: Its value is -0.0455.

Q: Which “PBM E-score” value does the source give for CTACCTTA here?
A: The value was -0.2.

Q: Which “PBM E-score” value does the source give for ATGATTCG here?
A: The value was 0.083.

Q: With GAGTTCTA as the sequence, how does the “PBM E-score” value read?
A: Its value is 0.0306.

Q: How did the “PBM E-score” value turn out when CAGACGCC was run?
A: The value was -0.155.

Q: How did the “PBM E-score” value turn out when ATTTGCAG was run?
A: The value was 0.147.

Q: With GCGTTCCA as the sequence, how does the “PBM E-score” value read?
A: The value was -0.0837.

Q: AGGCGAAG was tested. Which “PBM E-score” value did it give?
A: The value was -0.028.

Q: With CCGCCCAA as the sequence, how does the “PBM E-score” value read?
A: Its value is -0.195.

Q: With CTTGTTGA as the sequence, how does the “PBM E-score” value read?
A: The value was -0.0181.

Q: How did the “PBM E-score” value turn out when AATTCTAA was run?
A: The value was 0.0106.

Q: With ACATTGCT as the sequence, how does the “PBM E-score” value read?
A: The value was 0.119.

Q: TGGGGAAA was tested. Which “PBM E-score” value did it give?
A: The value was -0.0327.

Q: How did the “PBM E-score” value turn out when CGGTCCTA was run?
A: The value was -0.103.

Q: For CAGCATAA, which “PBM E-score” value is on record?
A: The value was 0.0446.

Q: How did the “PBM E-score” value turn out when GGATTCAA was run?
A: Its value is -0.0815.

Q: CCTAAATC was tested. Which “PBM E-score” value did it give?
A: The value was 0.154.

Q: How did the “PBM E-score” value turn out when CATAAAAA was run?
A: The value was 0.14.

Q: For AAACATCG, which “PBM E-score” value is on record?
A: Its value is -0.078.

Q: With AACACCTT as the sequence, how does the “PBM E-score” value read?
A: The value was -0.00949.

Q: With GACGAGGC as the sequence, how does the “PBM E-score” value read?
A: The value was -0.107.

Q: Which “PBM E-score” value does the source give for TAGCCACA here?
A: The value was 0.06.

Q: TCTTCCAA was tested. Which “PBM E-score” value did it give?
A: Its value is -0.0657.

Q: Which “PBM E-score” value does the source give for GACGTTCC here?
A: Its value is 0.0709.

Q: GAATACTA was tested. Which “PBM E-score” value did it give?
A: Its value is 0.0721.

Q: For ATAGGTTA, which “PBM E-score” value is on record?
A: Its value is 0.0502.

Q: Which “PBM E-score” value does the source give for AGTAGACT here?
A: Its value is -0.0456.

Q: Which “PBM E-score” value does the source give for CTAGGTTC here?
A: The value was -0.263.

Q: For GGTACACA, which “PBM E-score” value is on record?
A: The value was -0.239.

Q: How did the “PBM E-score” value turn out when CACAGATG was run?
A: Its value is -0.172.

Q: With AATCCGTG as the sequence, how does the “PBM E-score” value read?
A: Its value is 0.0724.

Q: With CAGGAGAA as the sequence, how does the “PBM E-score” value read?
A: The value was -0.104.

Q: How did the “PBM E-score” value turn out when CGTGCGGA was run?
A: The value was 0.239.

Q: ACCCAGAC was tested. Which “PBM E-score” value did it give?
A: The value was -0.0546.

Q: With ACATTCTC as the sequence, how does the “PBM E-score” value read?
A: Its value is 0.0503.

Q: For ACACCGCG, which “PBM E-score” value is on record?
A: Its value is -0.0294.

Q: Which “PBM E-score” value does the source give for CCTGTGAG here?
A: The value was -0.0224.

Q: Which “PBM E-score” value does the source give for GAACCGGC here?
A: The value was -0.181.

Q: How did the “PBM E-score” value turn out when CCTTATCA was run?
A: Its value is 0.236.

Q: With AATCGGCT as the sequence, how does the “PBM E-score” value read?
A: Its value is -0.0263.

Q: With GCCCATCC as the sequence, how does the “PBM E-score” value read?
A: The value was -0.137.

Q: How did the “PBM E-score” value turn out when CATTGTGC was run?
A: The value was -0.115.

Q: With TACTAACA as the sequence, how does the “PBM E-score” value read?
A: The value was 0.0524.

Q: CGGCGGCC was tested. Which “PBM E-score” value did it give?
A: Its value is -0.115.

Q: For CAAAGTTC, which “PBM E-score” value is on record?
A: The value was -0.133.

Q: With CTTATTAA as the sequence, how does the “PBM E-score” value read?
A: The value was 0.11.

Q: With CAGGGCAG as the sequence, how does the “PBM E-score” value read?
A: Its value is -0.073.

Q: For AGTATTCG, which “PBM E-score” value is on record?
A: Its value is 0.141.

Q: For CGTTCGCC, which “PBM E-score” value is on record?
A: The value was 0.0422.

Q: With CAGGGGAA as the sequence, how does the “PBM E-score” value read?
A: The value was -0.223.

Q: For CTAGTTTC, which “PBM E-score” value is on record?
A: The value was 0.0114.

Q: GAACCGCC was tested. Which “PBM E-score” value did it give?
A: Its value is -0.206.

Q: How did the “PBM E-score” value turn out when TCCCCGGA was run?
A: The value was -0.0899.
